In the supplement of paper PMC10849652:
The other results are listed elsewhere or left out.

The chains behind the UniProt entries cited, without tags or fusion partners. Where a name states a change or a piece, a line headed by the entry shows the natural chain unless it says otherwise.
UniProt Q49B96: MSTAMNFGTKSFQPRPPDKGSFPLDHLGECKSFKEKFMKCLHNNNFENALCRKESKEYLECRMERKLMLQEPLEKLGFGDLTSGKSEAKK
UniProt P31146: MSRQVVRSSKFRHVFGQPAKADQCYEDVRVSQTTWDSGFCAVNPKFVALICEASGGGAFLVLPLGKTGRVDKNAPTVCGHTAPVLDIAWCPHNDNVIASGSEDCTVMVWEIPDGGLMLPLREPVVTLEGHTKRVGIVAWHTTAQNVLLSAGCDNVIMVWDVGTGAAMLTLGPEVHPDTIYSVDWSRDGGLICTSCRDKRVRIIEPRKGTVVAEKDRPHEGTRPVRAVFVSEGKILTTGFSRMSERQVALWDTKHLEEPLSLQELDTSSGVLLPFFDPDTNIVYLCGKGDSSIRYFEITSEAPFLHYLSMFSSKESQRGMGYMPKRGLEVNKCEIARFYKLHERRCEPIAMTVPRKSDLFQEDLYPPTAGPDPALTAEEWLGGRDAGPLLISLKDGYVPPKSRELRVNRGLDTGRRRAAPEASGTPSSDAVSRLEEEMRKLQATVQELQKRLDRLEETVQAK
UniProt Q86VX2, whole entry, looked up: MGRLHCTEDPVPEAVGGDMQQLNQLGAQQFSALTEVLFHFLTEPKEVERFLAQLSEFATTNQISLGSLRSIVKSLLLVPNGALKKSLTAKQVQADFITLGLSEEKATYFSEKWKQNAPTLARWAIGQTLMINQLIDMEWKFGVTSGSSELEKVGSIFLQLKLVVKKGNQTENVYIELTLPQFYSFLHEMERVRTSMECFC
UniProt Q14019: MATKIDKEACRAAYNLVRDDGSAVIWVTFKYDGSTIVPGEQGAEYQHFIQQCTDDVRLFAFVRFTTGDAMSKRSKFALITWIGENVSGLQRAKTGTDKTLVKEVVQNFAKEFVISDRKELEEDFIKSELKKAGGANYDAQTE
UniProt P19784, whole entry, looked up: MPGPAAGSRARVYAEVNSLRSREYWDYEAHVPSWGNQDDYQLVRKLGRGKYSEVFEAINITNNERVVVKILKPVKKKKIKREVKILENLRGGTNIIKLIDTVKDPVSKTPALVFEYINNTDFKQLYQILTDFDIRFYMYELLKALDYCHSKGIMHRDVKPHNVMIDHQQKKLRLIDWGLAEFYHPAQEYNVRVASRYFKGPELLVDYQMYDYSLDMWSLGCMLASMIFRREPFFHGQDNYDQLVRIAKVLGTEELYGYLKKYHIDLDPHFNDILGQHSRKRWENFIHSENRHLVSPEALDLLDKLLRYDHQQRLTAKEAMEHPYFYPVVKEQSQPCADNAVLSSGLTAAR
UniProt Q5RI15: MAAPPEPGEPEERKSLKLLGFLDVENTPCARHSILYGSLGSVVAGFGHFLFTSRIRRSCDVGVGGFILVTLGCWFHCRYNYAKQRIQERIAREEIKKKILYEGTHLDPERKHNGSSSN
UniProt P14406, whole entry, looked up: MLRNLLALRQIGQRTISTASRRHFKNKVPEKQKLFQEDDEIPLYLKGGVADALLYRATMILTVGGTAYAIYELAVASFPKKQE
UniProt Q8IUI8: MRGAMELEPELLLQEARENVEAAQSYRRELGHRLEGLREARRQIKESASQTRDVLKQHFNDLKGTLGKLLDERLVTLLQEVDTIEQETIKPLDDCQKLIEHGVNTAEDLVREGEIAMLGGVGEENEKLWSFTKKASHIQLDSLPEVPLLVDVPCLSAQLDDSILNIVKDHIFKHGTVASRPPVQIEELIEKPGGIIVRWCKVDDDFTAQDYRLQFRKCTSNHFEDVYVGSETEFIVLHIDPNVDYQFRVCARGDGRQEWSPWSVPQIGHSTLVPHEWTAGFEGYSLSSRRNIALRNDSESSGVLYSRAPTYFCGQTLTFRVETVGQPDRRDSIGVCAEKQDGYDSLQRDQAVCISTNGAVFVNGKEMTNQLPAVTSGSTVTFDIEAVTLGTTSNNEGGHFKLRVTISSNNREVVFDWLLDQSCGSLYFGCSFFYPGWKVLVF
UniProt P41240: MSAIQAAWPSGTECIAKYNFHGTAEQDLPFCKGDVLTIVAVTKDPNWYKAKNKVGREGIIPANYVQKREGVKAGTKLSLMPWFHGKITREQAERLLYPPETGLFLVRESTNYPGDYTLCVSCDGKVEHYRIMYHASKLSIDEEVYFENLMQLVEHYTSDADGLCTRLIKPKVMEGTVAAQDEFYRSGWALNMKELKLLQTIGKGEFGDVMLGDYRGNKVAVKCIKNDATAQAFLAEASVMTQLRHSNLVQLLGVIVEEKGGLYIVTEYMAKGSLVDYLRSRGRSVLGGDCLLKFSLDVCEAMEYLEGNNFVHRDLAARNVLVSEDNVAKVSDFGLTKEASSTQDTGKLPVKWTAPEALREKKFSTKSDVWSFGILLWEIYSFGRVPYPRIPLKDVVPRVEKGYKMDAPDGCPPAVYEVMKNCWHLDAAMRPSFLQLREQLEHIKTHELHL
UniProt P67870, whole entry, looked up: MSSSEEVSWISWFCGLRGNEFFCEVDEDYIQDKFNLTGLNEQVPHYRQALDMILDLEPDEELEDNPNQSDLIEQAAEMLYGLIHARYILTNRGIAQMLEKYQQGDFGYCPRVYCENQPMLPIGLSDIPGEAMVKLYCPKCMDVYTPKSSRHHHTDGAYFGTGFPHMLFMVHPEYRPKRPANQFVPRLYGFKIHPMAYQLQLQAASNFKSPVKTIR
UniProt Q96HD1: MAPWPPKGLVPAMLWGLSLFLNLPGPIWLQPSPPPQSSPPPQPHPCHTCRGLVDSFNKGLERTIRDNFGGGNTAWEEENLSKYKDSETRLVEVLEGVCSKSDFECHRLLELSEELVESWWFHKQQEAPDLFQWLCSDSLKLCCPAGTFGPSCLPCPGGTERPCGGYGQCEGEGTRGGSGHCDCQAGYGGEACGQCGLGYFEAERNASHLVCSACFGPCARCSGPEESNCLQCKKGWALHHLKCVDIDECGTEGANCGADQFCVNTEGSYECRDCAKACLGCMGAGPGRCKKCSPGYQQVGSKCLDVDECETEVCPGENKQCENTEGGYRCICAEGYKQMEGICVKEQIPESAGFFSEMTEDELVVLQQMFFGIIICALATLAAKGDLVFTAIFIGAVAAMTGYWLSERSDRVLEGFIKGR
UniProt Q16630, whole entry, looked up: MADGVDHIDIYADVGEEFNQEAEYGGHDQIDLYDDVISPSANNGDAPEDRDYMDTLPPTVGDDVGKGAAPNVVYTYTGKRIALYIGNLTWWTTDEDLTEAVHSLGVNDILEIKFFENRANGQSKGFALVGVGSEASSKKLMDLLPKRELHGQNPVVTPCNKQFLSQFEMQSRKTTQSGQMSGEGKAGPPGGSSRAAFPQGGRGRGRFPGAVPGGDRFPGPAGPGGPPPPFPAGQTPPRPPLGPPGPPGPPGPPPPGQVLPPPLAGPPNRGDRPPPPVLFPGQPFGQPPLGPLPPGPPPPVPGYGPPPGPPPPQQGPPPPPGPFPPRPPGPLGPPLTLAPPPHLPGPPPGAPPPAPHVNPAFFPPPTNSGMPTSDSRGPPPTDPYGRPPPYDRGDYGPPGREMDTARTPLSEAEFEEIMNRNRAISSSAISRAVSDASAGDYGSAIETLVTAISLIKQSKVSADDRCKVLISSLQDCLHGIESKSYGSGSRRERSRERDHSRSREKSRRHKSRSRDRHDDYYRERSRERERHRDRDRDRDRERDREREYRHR
UniProt Q99807: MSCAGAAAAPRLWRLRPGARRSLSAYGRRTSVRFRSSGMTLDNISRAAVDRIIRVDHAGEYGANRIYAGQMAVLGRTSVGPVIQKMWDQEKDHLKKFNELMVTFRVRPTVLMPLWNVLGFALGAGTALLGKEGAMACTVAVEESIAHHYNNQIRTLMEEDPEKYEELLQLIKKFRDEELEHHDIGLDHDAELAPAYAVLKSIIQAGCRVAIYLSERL
UniProt O75718: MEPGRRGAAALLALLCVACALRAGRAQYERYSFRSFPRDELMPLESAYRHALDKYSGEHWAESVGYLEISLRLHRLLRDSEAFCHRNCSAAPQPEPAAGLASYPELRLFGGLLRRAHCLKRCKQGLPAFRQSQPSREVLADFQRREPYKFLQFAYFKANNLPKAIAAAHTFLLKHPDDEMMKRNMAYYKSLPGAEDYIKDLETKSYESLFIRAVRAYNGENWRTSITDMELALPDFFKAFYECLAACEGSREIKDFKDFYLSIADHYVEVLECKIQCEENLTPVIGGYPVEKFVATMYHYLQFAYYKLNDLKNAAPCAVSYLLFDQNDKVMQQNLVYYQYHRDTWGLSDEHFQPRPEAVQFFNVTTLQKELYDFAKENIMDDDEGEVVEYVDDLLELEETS
UniProt P46109: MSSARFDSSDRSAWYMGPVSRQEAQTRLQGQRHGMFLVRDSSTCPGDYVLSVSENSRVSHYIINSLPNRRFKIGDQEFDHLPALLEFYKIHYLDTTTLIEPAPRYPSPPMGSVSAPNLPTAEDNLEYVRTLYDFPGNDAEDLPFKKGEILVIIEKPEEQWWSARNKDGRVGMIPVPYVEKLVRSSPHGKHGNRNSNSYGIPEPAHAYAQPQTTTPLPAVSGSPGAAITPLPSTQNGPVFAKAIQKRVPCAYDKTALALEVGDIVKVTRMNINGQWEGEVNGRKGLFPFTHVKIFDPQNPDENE
UniProt Q9H0A8, whole entry, looked up: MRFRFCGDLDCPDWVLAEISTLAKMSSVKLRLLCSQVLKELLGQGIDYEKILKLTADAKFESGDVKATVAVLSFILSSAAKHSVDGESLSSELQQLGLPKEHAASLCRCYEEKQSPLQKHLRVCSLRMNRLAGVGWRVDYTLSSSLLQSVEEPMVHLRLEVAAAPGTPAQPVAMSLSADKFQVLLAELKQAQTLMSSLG
UniProt Q86X83, whole entry, looked up: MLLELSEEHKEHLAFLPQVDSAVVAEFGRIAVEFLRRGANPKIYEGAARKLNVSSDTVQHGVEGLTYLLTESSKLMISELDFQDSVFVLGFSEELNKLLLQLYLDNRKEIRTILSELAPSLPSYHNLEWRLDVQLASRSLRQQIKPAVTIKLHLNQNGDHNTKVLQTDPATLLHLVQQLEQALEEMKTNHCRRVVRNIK
UniProt Q5HYK3: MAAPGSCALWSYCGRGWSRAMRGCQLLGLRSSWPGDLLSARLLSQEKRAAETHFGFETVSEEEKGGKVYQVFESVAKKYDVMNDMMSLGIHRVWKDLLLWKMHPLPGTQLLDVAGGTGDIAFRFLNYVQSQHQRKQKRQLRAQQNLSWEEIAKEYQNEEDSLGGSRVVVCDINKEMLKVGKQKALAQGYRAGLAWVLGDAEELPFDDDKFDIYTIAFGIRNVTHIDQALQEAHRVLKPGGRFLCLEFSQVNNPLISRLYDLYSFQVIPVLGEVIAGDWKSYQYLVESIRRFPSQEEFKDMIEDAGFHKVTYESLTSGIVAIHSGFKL
UniProt P14854, whole entry, looked up: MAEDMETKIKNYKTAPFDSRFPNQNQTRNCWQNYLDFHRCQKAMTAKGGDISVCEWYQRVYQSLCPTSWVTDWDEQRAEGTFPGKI
UniProt O14548: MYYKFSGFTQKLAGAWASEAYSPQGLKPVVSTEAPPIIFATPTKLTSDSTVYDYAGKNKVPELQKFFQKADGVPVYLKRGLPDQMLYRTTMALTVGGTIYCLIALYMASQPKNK
UniProt P21964: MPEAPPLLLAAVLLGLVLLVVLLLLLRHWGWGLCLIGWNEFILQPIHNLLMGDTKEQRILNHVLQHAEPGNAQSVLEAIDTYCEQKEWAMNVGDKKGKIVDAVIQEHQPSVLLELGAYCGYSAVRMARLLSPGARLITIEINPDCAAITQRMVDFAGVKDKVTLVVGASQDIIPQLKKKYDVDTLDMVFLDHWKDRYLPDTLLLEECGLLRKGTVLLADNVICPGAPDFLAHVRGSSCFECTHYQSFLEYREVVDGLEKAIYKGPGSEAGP
UniProt P35606: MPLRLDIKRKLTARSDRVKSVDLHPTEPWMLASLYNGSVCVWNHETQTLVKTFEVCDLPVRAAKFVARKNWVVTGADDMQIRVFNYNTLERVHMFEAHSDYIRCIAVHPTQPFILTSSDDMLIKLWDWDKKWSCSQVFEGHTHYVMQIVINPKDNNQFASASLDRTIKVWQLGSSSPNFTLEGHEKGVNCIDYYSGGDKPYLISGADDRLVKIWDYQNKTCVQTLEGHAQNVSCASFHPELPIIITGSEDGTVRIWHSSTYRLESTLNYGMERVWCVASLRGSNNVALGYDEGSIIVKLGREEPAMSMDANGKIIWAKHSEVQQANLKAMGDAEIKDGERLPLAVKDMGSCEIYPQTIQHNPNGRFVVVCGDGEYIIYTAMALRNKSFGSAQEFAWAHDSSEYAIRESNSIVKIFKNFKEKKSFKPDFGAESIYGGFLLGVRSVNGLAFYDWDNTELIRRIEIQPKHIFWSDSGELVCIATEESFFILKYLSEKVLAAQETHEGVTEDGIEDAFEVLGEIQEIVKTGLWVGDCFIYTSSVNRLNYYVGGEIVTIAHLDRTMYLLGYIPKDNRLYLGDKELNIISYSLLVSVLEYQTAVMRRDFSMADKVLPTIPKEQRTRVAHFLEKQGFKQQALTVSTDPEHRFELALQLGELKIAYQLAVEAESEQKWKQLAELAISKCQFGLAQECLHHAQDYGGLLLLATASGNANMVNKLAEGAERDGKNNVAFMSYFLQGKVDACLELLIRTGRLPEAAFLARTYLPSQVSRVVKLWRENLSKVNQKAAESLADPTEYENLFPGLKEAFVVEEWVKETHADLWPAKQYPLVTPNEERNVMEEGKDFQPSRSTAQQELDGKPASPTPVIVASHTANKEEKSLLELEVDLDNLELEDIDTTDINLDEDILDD

Key:
Assay in all cases: log2 fold change, soluble protein after heating vs DMSO (PISA); higher = thermal stabilisation; K562 cells, 10 uM, 30 min; active = over 0.2 and 3.5 SD of the protein, either way, in both replicates (recomputed)
[1] = compound: NC(=O)Nc1cc(-c2cccc(F)c2)sc1C(=O)N[C@H]1CCCNC1
How it was run: (§1)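 Quantification of soluble protein used TMTpro 16plex LC-MS/MS, with channel sums equalised. Samples were the supernatant after 21,000xg for 90 min of pooled aliquots from K562 cells (2×10^6 cells/mL) treated with 10 μM compound for 30 min, heated for 3 min over 48°C-58°C, and extracted in PBS with 0.5% NP-40 at 4°C. Values, from duplicates, describe thermal stability against control samples on a log2 fold-change scale.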

[2] = compound: NC(=O)c1cnc(N[C@@H]2CCCC[C@@H]2N)nc1Nc1cccc(-n2nccn2)c1
How it was run: as §1

[3] = compound: NC1(c2ccc(-c3nc4ccn5c(=O)[nH]nc5c4cc3-c3ccccc3)cc2)CCC1
How it was run: as §1

[4] = compound: NCC(=O)Nc1ccc(-n2nc(C(F)(F)F)cc2-c2ccc3c(ccc4ccccc43)c2)cc1
How it was run: as §1

entinostat = compound: Nc1ccccc1NC(=O)c1ccc(CNC(=O)OCc2cccnc2)cc1 [entinostat]
How it was run: as §1

vorinostat = compound: O=C(CCCCCCC(=O)Nc1ccccc1)NO [vorinostat]
How it was run: as §1

citarinostat = compound: O=C(CCCCCCNC(=O)c1cnc(N(c2ccccc2)c2ccccc2Cl)nc1)NO [citarinostat]
How it was run: as §1

silmitasertib = compound: O=C(O)c1ccc2c(c1)nc(Nc1cccc(Cl)c1)c1ccncc12 [silmitasertib]
How it was run: as §1

[5] = compound: O=C1NC(=O)C(c2cnc3ccccn23)=C1c1cn2c3c(cc(F)cc13)CN(C(=O)N1CCCCC1)CC2
How it was run: as §1

[6] = compound: c1cc(OCCN2CCCCC2)cc(-c2n[nH]c3ccc(-c4nnc[nH]4)cc23)c1
How it was run: as §1

Measured: log2 fold change

COX19 (UniProt Q49B96)
inactive: [1] 0.049 | [2] -0.013 | [3] -0.014 | [4] 0.005 | entinostat -0.038 | vorinostat -0.021 | citarinostat -0.007 | silmitasertib 0.009 | [5] -0.011 | [6] -0.017

CSNK1D (UniProt P48730)
inactive: [1] -0.043 | [2] 0.185 | [3] 0.106 | [4] -0.02 | entinostat -0.062 | vorinostat 0 | citarinostat -0.025 | silmitasertib 0.054 | [5] 0.107 | [6] 0.173

CORO1A (UniProt P31146)
inactive: [1] -0.054 | [2] -0.078 | [3] -0.212 | [4] -0.067 | entinostat -0.003 | vorinostat 0.074 | citarinostat 0.032 | silmitasertib 0.042 | [5] 0.011 | [6] -0.044

COMMD7 (UniProt Q86VX2)
inactive: [1] -0.04 | [2] -0.021 | [3] -0.088 | [4] -0.056 | entinostat -0.034 | vorinostat 0.043 | citarinostat 0.018 | silmitasertib 0.048 | [5] 0.023 | [6] -0.1

COTL1 (UniProt Q14019)
inactive: [1] -0.033 | [2] -0.042 | [3] -0.053 | [4] -0.078 | entinostat 0.002 | vorinostat 0 | citarinostat 0.051 | silmitasertib 0.017 | [5] -0.03 | [6] -0.029

Quoted from the listing (2 entries):
COMMD7 (UniProt Q86VX2)
inactive: [1] -0.04 | [2] -0.021 | [3] -0.088 | [4] -0.056 | entinostat -0.034 | vorinostat 0.043 | citarinostat 0.018 | silmitasertib 0.048 | [5] 0.023 | [6] -0.1

COTL1 (UniProt Q14019)
inactive: [1] -0.033 | [2] -0.042 | [3] -0.053 | [4] -0.078 | entinostat 0.002 | vorinostat 0 | citarinostat 0.051 | silmitasertib 0.017 | [5] -0.03 | [6] -0.029

Going on with the list.

CSNK2A2 (UniProt P19784)
inactive: [1] -0.069 | [2] 0.008 | [3] -0.052 | [4] 0.069 | entinostat -0.015 | vorinostat 0.086 | citarinostat 0.011 | [5] -0.076 | [6] 0.022
active: silmitasertib 0.873

COX20 isoform 2 (UniProt Q5RI15)
active: [3] 0.363
inactive: [1] -0.02 | [2] -0.016 | [4] -0.029 | entinostat -0.036 | vorinostat -0.116 | citarinostat 0.027 | silmitasertib -0.034 | [5] -0.004 | [6] 0.016

CREBBP (UniProt Q92793)
inactive: [1] 0.011 | [2] 0.009 | [3] -0.072 | [4] -0.016 | entinostat 0.003 | vorinostat 0.007 | citarinostat 0.078 | silmitasertib -0.046 | [5] -0.026 | [6] -0.015

COX7A2 (UniProt P14406)
inactive: [1] -0.002 | [2] -0.06 | [3] -0.069 | [4] -0.06 | entinostat 0.027 | vorinostat -0.136 | citarinostat -0.024 | silmitasertib -0.052 | [5] 0.02 | [6] -0.036

CRLF3 (UniProt Q8IUI8)
inactive: [1] 0.016 | [2] -0.233 | [3] -0.165 | [4] -0.105 | entinostat 0.025 | vorinostat -0.023 | citarinostat 0.047 | silmitasertib 0.104 | [5] -0.003 | [6] -0.057

CSK (UniProt P41240)
inactive: [2] -0.084 | [3] -0.156 | [4] -0.083 | entinostat 0.006 | vorinostat 0.023 | citarinostat 0.03 | silmitasertib 0.046 | [5] -0.048 | [6] -0.014
active: [1] 0.318

CSNK2B (UniProt P67870)
active: silmitasertib 0.377
inactive: [1] -0.017 | [2] 0 | [3] 0.006 | [4] 0.084 | entinostat -0.008 | vorinostat 0.021 | citarinostat 0.036 | [5] -0.011 | [6] -0.02

CRELD1 isoform 2 (UniProt Q96HD1)
inactive: [1] -0.231 | [2] -0.123 | [3] -0.228 | [4] -0.524 | entinostat -0.014 | vorinostat -0.024 | citarinostat -0.023 | silmitasertib 0.103 | [5] 0.069 | [6] -0.139

CROCC (UniProt Q5TZA2)
inactive: [1] -0.066 | [2] -0.009 | [3] -0.083 | [4] -0.061 | entinostat 0.033 | vorinostat -0.027 | citarinostat -0.004 | silmitasertib -0.02 | [5] -0.116 | [6] 0.047

CPSF6 isoform 2 (UniProt Q16630)
active: silmitasertib -0.225
inactive: [1] -0.027 | [2] -0.037 | [3] -0.01 | [4] 0.029 | entinostat -0.008 | vorinostat -0.007 | citarinostat 0.004 | [5] -0.003 | [6] -0.179

COQ7 (UniProt Q99807)
inactive: [1] -0.12 | [2] -0.009 | [3] -0.076 | [4] -0.007 | entinostat 0 | vorinostat -0.032 | citarinostat 0.083 | silmitasertib 0.008 | [5] -0.002 | [6] 0.015

CSNK1A1L (UniProt Q8N752)
inactive: [1] -0.224 | [2] 0.023 | [3] 0.064 | [4] -0.001 | entinostat 0.022 | vorinostat 0.128 | citarinostat 0.034 | silmitasertib 0.061 | [5] 0.14 | [6] -0.058

CRTAP (UniProt O75718)
inactive: [1] 0.016 | [2] 0.056 | [3] -0.008 | [4] 0.079 | entinostat 0.011 | vorinostat 0.003 | citarinostat -0.027 | silmitasertib 0.053 | [5] 0.049 | [6] -0.121

COPZ1 isoform 4 (UniProt P61923)
inactive: [1] 0.028 | [2] 0.075 | [3] -0.037 | [4] -0.012 | entinostat 0.045 | vorinostat -0.093 | citarinostat 0.016 | silmitasertib -0.014 | [5] -0.034 | [6] -0.049

CRKL (UniProt P46109)
inactive: [2] -0.019 | [3] -0.015 | [4] -0.005 | entinostat 0.004 | vorinostat 0.023 | citarinostat 0.005 | silmitasertib 0.066 | [5] -0.031 | [6] -0.064
active: [1] -1.11

COMMD4 (UniProt Q9H0A8)
inactive: [1] -0.017 | [2] 0.059 | [3] -0.172 | [4] 0.078 | entinostat -0.011 | vorinostat 0.096 | citarinostat 0.029 | silmitasertib 0.046 | [5] 0.138 | [6] 0.043

COMMD2 (UniProt Q86X83)
inactive: [1] -0.007 | [2] -0.034 | [3] -0.098 | [4] 0.039 | entinostat -0.062 | vorinostat 0.049 | citarinostat 0.011 | silmitasertib 0.053 | [5] 0.011 | [6] -0.08

COQ5 (UniProt Q5HYK3)
inactive: [1] -0.006 | [2] -0.086 | [3] -0.087 | [4] 0.015 | entinostat -0.035 | vorinostat 0.008 | citarinostat 0.043 | silmitasertib 0.004 | [5] -0.038 | [6] 0.01

COX6B1 (UniProt P14854)
inactive: [1] -0.039 | [2] -0.019 | [3] -0.146 | [4] 0.007 | entinostat 0.085 | vorinostat -0.06 | citarinostat -0.007 | silmitasertib -0.009 | [5] -0.126 | [6] -0.017

COX4I1 (UniProt P13073)
inactive: [1] 0.005 | [2] 0.012 | [3] 0.026 | [4] 0.026 | entinostat 0 | vorinostat -0.037 | citarinostat 0.005 | silmitasertib 0.003 | [5] -0.014 | [6] -0.046

COX7A2L (UniProt O14548)
inactive: [1] -0.025 | [2] -0.044 | [3] -0.078 | [4] -0.069 | entinostat 0.049 | vorinostat -0.1 | citarinostat -0.031 | silmitasertib -0.006 | [5] -0.076 | [6] -0.035

COMT (UniProt P21964)
inactive: [1] -0.052 | [3] -0.015 | [4] -0.022 | entinostat -0.022 | vorinostat -0.054 | citarinostat 0.052 | silmitasertib -0.057 | [5] -0.086 | [6] 0.015
active: [2] 0.356

CPED1 (UniProt A4D0V7)
inactive: [1] 0.026 | [2] 0.017 | [3] 0.044 | [4] 0.054 | entinostat 0.05 | vorinostat 0.026 | citarinostat 0.033 | silmitasertib 0.113 | [5] 0.019 | [6] -0.15

COPB2 (UniProt P35606)
inactive: [1] -0.035 | [2] -0.034 | [3] -0.066 | [4] -0.038 | entinostat -0.019 | vorinostat 0.008 | citarinostat 0.017 | silmitasertib 0.014 | [5] -0.054 | [6] -0.024
